Values joined by “and” are separate entries in the source; they are usually repeats but may differ in a detail not shown here. Identical values can stand only once. The list shows a part of the results. Single values are uncertain here, since repeats match poorly.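 HEK293T cells were given each compound shortly before transfection with a reporter in which red mCherry is followed by the SARS-CoV-2 frameshift element and then GFP in the −1 frame, so GFP appears only after frameshifting.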
test system: HEK293T; experiment: percent viability (nuclei count) relative to control; higher = more viable cells; conditions: 10 µM; 24 h

| SMILES | percent viability |
| --- | --- |
| O=c1[nH]c(=O)c2ccccc2o1 [carsalam] | 39.6% |
| COc1cc([C@@H]2c3cc4c(cc3[C@@H](O[C@@H]3O[C@@H]5CO[C@@H](C)O[C@H]5[C@H](O)[C@H]3O)[C@H]3COC(=O)[C@H]23)OCO4)cc(OC)c1O | 125% |
| CCc1nn(CCCN2CCN(c3cccc(Cl)c3)CC2)c(=O)n1CC [etoperidone] | 272% |
| CCOC(=O)c1ccc(N)cc1 [benzocaine] | 219% |
| COc1c(N2CCNC(C)C2)c(F)cc2c(=O)c(C(=O)O)cn(C3CC3)c12 (centres undefined) [gatifloxacin] | 352% and 157% |
| CCN(CC)CCNC(=O)c1ccccc1O [saletamide] | 167% |
| CC(C)c1cc(C(C)C)c(-c2csc(N(CCN(C)C)Cc3cccnc3)n2)c(C(C)C)c1 [foropafant] | 228% |
| CC(C[N+](C)(C)C)OC(N)=O (centres undefined) | 295% |
| Cc1ccc(C(=O)c2ccc(CC(=O)O)n2C)cc1 [tolmetin] | 121% and 266% |
| C[C@H](C#Cc1ccc(Cc2ccc(F)cc2)s1)N(O)C(N)=O [atreleuton] | 135% |
| CCN1CCC[C@H]1CNC(=O)c1c(OC)ccc(Br)c1OC [remoxipride] | 370% |
| NCCC[C@H](N)CC(=O)N[C@H]1CNC(=O)[C@H]([C@H]2C[C@H](O)NC(N)=N2)NC(=O)/C(=C/NC(N)=O)NC(=O)[C@H](CO)NC(=O)[C@H](CO)NC1=O | 363% |
| CC[C@H]1OC(=O)[C@H](C)[C@@H](O[C@H]2C[C@@](C)(OC)[C@@H](O)[C@H](C)O2)[C@H](C)[C@@H](O[C@@H]2O[C@H](C)C[C@H](N(C)C)[C@H]2O)[C@](C)(O)C[C@@H](C)/C(=N\OCOCCOC)[C@H](C)[C@@H](O)[C@]1(C)O | 346% |
| CNCC[C@@H](Oc1ccccc1C)c1ccccc1 | 322% |
| N[C@H]1C(O)O[C@H](CO)[C@@H](O)[C@@H]1O (some centres undefined) | 173% and 193% |
| Fc1ccc(C(c2ccc(F)cc2)N2CCN(C/C=C/c3ccccc3)CC2)cc1 [flunarizine] | 116% and 269% |
| CCCCN1CCCC[C@H]1C(=O)Nc1c(C)cccc1C [levobupivacaine] | 231% |

| SMILES | percent viability |
| --- | --- |
| O=C(O)[C@@H]1[C@H]2C[C@H]3c4[nH]c5ccccc5c4CCN3C[C@@H]2CC[C@@H]1O [yohimbic acid] | 200% |
| Cc1cccc(C)c1NC(=O)CN1CCCCCC1 [pincainide] | 122% |
| CO/N=C(\C(=O)N[C@@H]1C(=O)N2C(C(=O)[O-])=C(C[N+]3(C)CCCC3)CS[C@H]12)c1csc(N)n1 [Cefepime] | 164% |
| CC1CS(=O)(=O)CCN1/N=C/c1ccc([N+](=O)[O-])o1 (centres undefined) [nifurtimox] | 140% |
| O=C1O[C@H]([C@@H](O)CO)C(O)=C1O | 236% |
| CO[C@H]1/C=C/O[C@@]2(C)Oc3c(C)c(O)c4c(O)c(c(/C=N/N5CCN(C)CC5)c(O)c4c3C2=O)NC(=O)/C(C)=C\C=C\[C@H](C)[C@H](O)[C@@H](C)[C@@H](O)[C@@H](C)[C@H](OC(C)=O)[C@@H]1C [Rifampicin] | 336% |
| CCCCC1(COC(=O)CCC(=O)O)C(=O)N(c2ccccc2)N(c2ccccc2)C1=O [suxibuzone] | 161% |
| CO[C@H]1/C=C/O[C@@]2(C)Oc3c(C)c(O)c4c(O)c(c5c(nc6cc(C)ccn65)c4c3C2=O)NC(=O)/C(C)=C\C=C\[C@H](C)[C@H](O)[C@@H](C)[C@@H](O)[C@@H](C)[C@H](OC(C)=O)[C@@H]1C [Xifaxan] | 246% |
| COc1ccc(-c2cc(=S)ss2)cc1 [Anethole-trithione] | 239% |
| COC(c1ccccc1)(c1ccccc1)[C@H](Oc1nc(C)cc(C)n1)C(=O)O [ambrisentan] | 215% |
| CC(=O)OCC1=C(C(=O)O)N2C(=O)[C@@H](NC(=O)CSc3ccncc3)[C@H]2SC1 | 241% |
| O=C(OCCOCCO)c1ccccc1Nc1cccc(C(F)(F)F)c1 [etofenamate] | 217% |
| C[C@@H]1C[C@H]2[C@@H]3CCC4=CC(=O)C=C[C@]4(C)[C@@]3(F)[C@@H](O)C[C@]2(C)[C@@]1(O)C(=O)COP(=O)(O)O | 117% |
| CC(=O)Nc1ccc(O)cc1 [paracetamol] | 128% |
| Cn1ccnc1S [thiamazole] | 143% and 266% |
| CC(=O)Oc1ccc(C(=C2CCCCC2)c2ccc(OC(C)=O)cc2)cc1 [cyclofenil] | 72.8% |
| C[C@]12CC[C@@H]3c4ccc(O)cc4CC[C@H]3[C@@H]1CCC2=O [estrone] | 134% and 228% |
